Entries after “also recorded” stand apart in the source; their conditions may differ. At least one structure is not confirmed: it was looked up by name or label, or the drawing left a doubt.
Columns and labels:
[1] = system: child with refractory epilepsy, multiple mitochondrial DNA deletion syndrome; experiment: Treatment of refractory epilepsy (case, Example 2); assay type: in vivo, human
[2] = system: child with Leigh's Syndrome, severe Complex I deficiency; experiment: Treatment of renal tubular acidosis (case, Example 3); assay type: in vivo, human
[3] = system: child with epilepsy, ataxia, language delay, fat intolerance, dicarboxylic aciduria; experiment: Treatment of developmental delay (case, Example 4); assay type: in vivo, human; details: 0.1 to 0.3 g/kg/day
Method: A child with epilepsy, ataxia, language delay, and fat intolerance, and dicarboxylic aciduria was treated with triacetyluridine at a daily dose of 0.1 to 0.3 g/kg/day.

[4] = system: person with a partial Complex I deficiency, multisystem mitochondrial disorder; experiment: Treatment of a multisystem mitochondrial disorder with triacetyluridine (case, Example 1); assay type: in vivo, human
taxol-treated mice = experiment: Taxol-induced neuropathy, tail-flick latency; assay type: in vivo; details: oral triacetyluridine
Method: Two groups of 10 mice each were treated with taxol, 21.6 mg/kg/day for 6 consecutive days by intraperitoneal injection. An additional group of 10 mice received injections of vehicle alone. One of the groups of taxol-treated mice received oral triacetyluridine, 4000 mg/kg b.i.d. Nine days after the initiation of taxol treatments, nociceptive sensory deficits were tested by determining tail-flick latency after exposure of the tip of the tail to focused thermal radiation with an infrared heat lamp. In this system, delays in the tail-flick response to radiant heat correlate with sensory nerve deficits.

[5] = system: mice infused with sodium azide; experiment: Subcutaneous azide infusion: mortality, body weight, TUNEL staining; assay type: in vivo, C57/BL/6N mice
[6] = 0.05 mg/kg/day oral, at least 6 months

## CC(=O)OC[C@H]1O[C@@H](n2ccc(=O)[nH]c2=O)[C@H](OC(C)=O)[C@@H]1OC(C)=O [TAU, triacetyluridine]
[1]; during therapy
  appetite, cognitive function, and fine motor coordination: improved
[1]; first three days after beginning oral treatment
  involuntary lip movements: ceased
[1]; first three days after beginning oral treatment, initially 0.05 g/kg/day
  seizures (before: 8 to 10 grand-mal seizures per night): no seizures
[1]; subsequently, dose increased to 0.1 and then 0.24 g/kg/day
  recurrence of seizures, frequency: much lower frequency than prior to treatment
[2]; after withdrawal of dichloroacetate treatment
  lactic acid: low levels
[2]; intragastric treatment
  elevated circulating amino acid concentrations: rapid normalization
[2]; within several hours after beginning intragastric treatment
  supplementary bicarbonate to normalize blood pH (before: 25 mEq per day i.v.): no longer required
[2]; within several hours after beginning intragastric treatment at 0.1 g/mg/day
  renal tubular acidosis: resolved
[3]
  ataxia and motor coordination: improvement
  development of expressive language capabilities: rapidly accelerated development
  dietary fat tolerance: restoration
[4]; [6]
  catheterization requirement (before: approximately four times per day): once or twice per week
  paresthesias related to peripheral neuropathy: resolved
[4]; 0.05 mg/kg/day oral, duration of at least 6 months
  seizures or migraines: has not had seizures or migraines
[4]; after 6 weeks of treatment
  functional capacity (walking): able to walk a full mile
  tachycardia (before: upon simple rise to stand): occurred only on hills and stairs
[4]; during oral treatment
  sensorium and memory deficits: sensorium has cleared and memory deficits have improved markedly
taxol-treated mice
  taxol-induced alterations in tail-flick latency: significantly attenuated
[5]; 40 μg/hr azide (FIG. 14)
  loss of body weight: prevented
[5]; 80 μg/hr azide for 2 weeks, 6% TAU (FIG. 15)
  cell loss, Tunel positive (dying) cells in the cerebral cortex: reduced cell loss; also recorded: decreased the dying cells dramatically
[5]; 40 or 80 μg/hr azide, 6% TAU vs chow, p<0.05
  survival (Kaplan-Meier, Mantel-Cox): increased survival
